From the supplement of paper PMC12823440, “Inhibitors supercharge kinase turnover through native proteolytic circuits” (Nature, 2025) come the findings set out here.

The structures appear in SMILES notation. Counter-ions that a name gives are not always drawn. The list shows a part of the results. The calls rarely recur for the same compound in another form.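 Kinases were expressed as nanoluciferase fusions in K562 cells and luminescence was read every 4 h between 2 and 18 h as percent of control, DMSO set to 100% and a positive control to 0%. A time point counts as decreased when the signal drops significantly (2 sigma). The hit call is the authors' own, does not follow from the count of time points alone, and its rule is not shown.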

In this assay the target is HER2 (UniProt P04626). The experiment in a line: number of time points (of 5) at which kinase-Nluc abundance scored as decreased, DMSO-normalised (count); higher = more persistent destabilization. The following applies: K562; 2-18 h.
Regarding `COCCNc1nc2ccc(C#CC3(O)CCCCC3)cc2n1-c1ccnc(N)n1` (10 µM), the “number of time points” value worked out at 0.

`Cc1[nH]c(/C=C2\C(=O)Nc3ccccc32)c(C)c1CCC(=O)O` [Orantinib] (10 µM): the “number of time points” value came out at 0.

Take `Nc1cc(C(F)(F)F)c(-c2cc(N3CCOCC3)nc(N3CCOCC3)n2)cn1` [Buparlisib (Hydrochloride)] (2.5 µM): the “number of time points” value was 1.

With `CCN1CCN(Cc2ccc(Nc3ncc(F)c(-c4cc(F)c5nc(C)n(C(C)C)c5c4)n3)nc2)CC1` [Abemaciclib (methanesulfonate)] (10 µM), the “number of time points” value stood at 0.

`Cc1ccc2cc(-c3c(C)ccc(C(=O)c4c(-c5ccccc5)n(C)n(-c5ccccc5)c4=O)c3N)ccc2n1` (2.5 µM): the “number of time points” value was found to be 0.

For the compound `FC(F)(c1ccc2ncccc2c1)c1nnc2ccc(-c3ccncc3)nn12` (10 µM), the “number of time points” value is 0.

Regarding `O=C1N[C@@H](Cc2c[nH]c3ccccc23)C(=O)N2CCC[C@@H]12` [Brevianamide F] (10 µM), the “number of time points” value was found to be 0.

As to `Cc1nc2sccn2c(=O)c1CCN1CCC(=C(c2ccccc2)c2ccc(F)cc2)CC1` (10 µM), the “number of time points” value was 0.

Consider `O=c1[nH]c(=O)n([C@@H]2O[C@H](CO)[C@@H](O)[C@@H]2O)cc1/C=C/Br` [Sorivudine] (10 µM), for which the “number of time points” value worked out at 0.

As to `COc1cc2nccc(Oc3ccc(NC(=O)NC4CC4)c(Cl)c3)c2cc1C(N)=O` [Lenvatinib (mesylate)] (10 µM), the “number of time points” value came out at 1.

Consider `CN1C(=O)N[C@H](Cc2c[nH]c3c(Cl)cccc23)C1=O` [Necrostatin 2] (10 µM), for which the “number of time points” value was 0.

With `CCN1CCN(Cc2ccc(Nc3ncc(F)c(-c4cc(F)c5nc(C)n(C(C)C)c5c4)n3)nc2)CC1` [Abemaciclib] (2 µM), the “number of time points” value was determined as 0.

For the compound `Cc1ccc2nc(NCCN)c3ncc(C)n3c2c1` (2.5 µM), the “number of time points” value was determined as 0.

`CNC(=O)c1c(F)cccc1Nc1nc(Nc2cc3c(cc2OC)CCN3C(=O)CN(C)C)nc2[nH]ccc12` (10 µM): the “number of time points” value was 0.

As for `Cn1nccc1Nc1nccc(-c2ccn([C@H](CO)c3ccc(Cl)c(F)c3)c(=O)c2)n1` [Ravoxertinib hydrochloride] (10 µM), the “number of time points” value was 0.

For the compound `CN(C)CCSSCCNC(=O)C1CCN(C(=O)CSc2ccc(Cl)cc2)CC1` (10 µM), the “number of time points” value stood at 0.

`CNC(=O)c1cc(COc2nnc(Nc3ccc(Cl)cc3)c3ccoc23)ccn1` [Telatinib] (10 µM): the “number of time points” value amounted to 0.

`NCCNS(=O)(=O)c1cccc2c(Cl)cccc12` [A-3 (hydrochloride)] (10 µM): the “number of time points” value worked out at 0.

With `O=C(Nc1ccc(CN2CCOCC2)cc1)c1ccc(-c2cccc(Cl)c2)o1` (10 µM), the “number of time points” value was 0.

Take `CCN1CCN(Cc2ccc(-c3cc4c(N[C@H](C)c5ccccc5)ncnc4[nH]3)cc2)CC1` (2.5 µM): the “number of time points” value was 2.

Turning to `COc1cccc(OC)c1C(=O)OCc1cc(O)ccc1O[C@@H]1O[C@H](CO)[C@@H](O)[C@H](O)[C@H]1O` [Curculigoside] (10 µM), the “number of time points” value was 0.

For the compound `Nc1ncnc2c1c(-c1ccc(Oc3ccccc3)cc1)nn2C1CCCC1` (2.5 µM), the “number of time points” value was 0.

Turning to `CC#CC(=O)N1CC[C@@H](n2c(=O)n(-c3ccc(Oc4ccccc4)cc3)c3c(N)ncnc32)C1` [Tirabrutinib] (10 µM), the “number of time points” value was 0.
